For one substance, binding results are on record in article PMC2843739.

By UniProt entry, the sequences of proteins in these tests, tags left out. Residues count along the entry.
UniProt P08113, residues 22-802: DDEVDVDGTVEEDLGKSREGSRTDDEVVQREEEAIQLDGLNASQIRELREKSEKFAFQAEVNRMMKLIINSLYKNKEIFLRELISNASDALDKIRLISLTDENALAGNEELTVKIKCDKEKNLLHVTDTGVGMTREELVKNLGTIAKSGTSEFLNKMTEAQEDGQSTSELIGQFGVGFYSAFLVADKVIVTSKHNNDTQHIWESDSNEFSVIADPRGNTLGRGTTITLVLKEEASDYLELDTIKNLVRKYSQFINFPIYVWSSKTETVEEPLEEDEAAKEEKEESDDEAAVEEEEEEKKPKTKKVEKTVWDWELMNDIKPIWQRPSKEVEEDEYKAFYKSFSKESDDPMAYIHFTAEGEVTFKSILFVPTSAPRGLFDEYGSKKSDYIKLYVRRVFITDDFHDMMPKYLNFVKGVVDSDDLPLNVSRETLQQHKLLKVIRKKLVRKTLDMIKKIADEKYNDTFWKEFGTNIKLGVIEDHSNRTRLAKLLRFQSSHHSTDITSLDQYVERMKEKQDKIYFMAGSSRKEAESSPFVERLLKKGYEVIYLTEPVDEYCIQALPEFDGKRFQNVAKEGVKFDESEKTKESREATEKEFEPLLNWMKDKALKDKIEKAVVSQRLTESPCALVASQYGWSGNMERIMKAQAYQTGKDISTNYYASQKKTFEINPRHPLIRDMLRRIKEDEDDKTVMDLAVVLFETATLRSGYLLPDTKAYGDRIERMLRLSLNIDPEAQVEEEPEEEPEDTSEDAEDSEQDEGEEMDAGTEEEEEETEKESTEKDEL

For this experiment, the target named is T1, recombinant AIMP1 (UniProt Q12904).
T1 sequence: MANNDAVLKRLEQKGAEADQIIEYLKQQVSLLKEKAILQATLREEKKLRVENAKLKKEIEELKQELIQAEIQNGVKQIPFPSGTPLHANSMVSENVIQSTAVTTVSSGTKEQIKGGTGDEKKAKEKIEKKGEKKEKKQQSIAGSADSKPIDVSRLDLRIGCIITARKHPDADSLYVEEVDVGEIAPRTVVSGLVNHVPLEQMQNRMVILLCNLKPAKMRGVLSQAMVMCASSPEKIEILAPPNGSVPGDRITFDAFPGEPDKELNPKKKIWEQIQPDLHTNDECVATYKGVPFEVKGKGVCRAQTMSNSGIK
The experiment can be described thus: ELISA; AIMP1 coated at 500ng/well in PBS (pH 7.4), blocked with 1% BSA; 10ng/well biotin-conjugated gp96 in Tris buffer (25 mM Tris, 10 mM NaCl, 0.4% Triton X-100), with test compounds or DMSO; detected with HRP-conjugated streptavidin, absorbance at 450 nm; both purified. For orientation: An ELISA detects its analyte on a solid surface through an enzyme-linked reagent.

These are yes or no findings as the source states them, for the method shown. Some binding calls cover weakened binding; strength is not graded here.

On to “biotin-conjugated murine gp96 (from UniProt P08113 22-802)”, for which the binding entry was “binds”.
